Results as given in the supplement of paper PMC10849652.
Some of the results follow.

Sequences of proteins named here, by UniProt entry; tags and fusion partners are left off. A change or cut given only in a name is not applied to a line headed by its entry.
UniProt Q8TBF5: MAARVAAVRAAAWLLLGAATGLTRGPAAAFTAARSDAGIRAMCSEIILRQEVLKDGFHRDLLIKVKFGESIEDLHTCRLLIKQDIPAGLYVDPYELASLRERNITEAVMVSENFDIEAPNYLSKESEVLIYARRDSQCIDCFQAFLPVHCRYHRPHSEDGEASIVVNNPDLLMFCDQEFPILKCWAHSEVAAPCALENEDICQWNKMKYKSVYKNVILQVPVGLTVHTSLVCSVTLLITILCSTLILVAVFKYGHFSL
UniProt Q92643: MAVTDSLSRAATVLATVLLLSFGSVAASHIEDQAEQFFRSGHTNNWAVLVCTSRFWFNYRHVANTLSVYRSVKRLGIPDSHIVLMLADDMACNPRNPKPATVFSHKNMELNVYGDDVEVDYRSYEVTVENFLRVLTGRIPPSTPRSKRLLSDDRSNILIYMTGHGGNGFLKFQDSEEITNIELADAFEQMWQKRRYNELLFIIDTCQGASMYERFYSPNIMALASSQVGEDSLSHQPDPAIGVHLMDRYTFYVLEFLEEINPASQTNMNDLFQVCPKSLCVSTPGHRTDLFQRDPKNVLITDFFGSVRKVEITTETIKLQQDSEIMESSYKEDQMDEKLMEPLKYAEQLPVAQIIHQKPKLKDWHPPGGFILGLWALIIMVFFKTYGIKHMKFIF
UniProt Q13526, whole entry, looked up: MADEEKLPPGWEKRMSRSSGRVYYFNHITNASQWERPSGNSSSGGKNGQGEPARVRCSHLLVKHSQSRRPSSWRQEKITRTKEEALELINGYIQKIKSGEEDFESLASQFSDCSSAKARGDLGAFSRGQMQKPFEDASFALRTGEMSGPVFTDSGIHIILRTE
UniProt Q9H490: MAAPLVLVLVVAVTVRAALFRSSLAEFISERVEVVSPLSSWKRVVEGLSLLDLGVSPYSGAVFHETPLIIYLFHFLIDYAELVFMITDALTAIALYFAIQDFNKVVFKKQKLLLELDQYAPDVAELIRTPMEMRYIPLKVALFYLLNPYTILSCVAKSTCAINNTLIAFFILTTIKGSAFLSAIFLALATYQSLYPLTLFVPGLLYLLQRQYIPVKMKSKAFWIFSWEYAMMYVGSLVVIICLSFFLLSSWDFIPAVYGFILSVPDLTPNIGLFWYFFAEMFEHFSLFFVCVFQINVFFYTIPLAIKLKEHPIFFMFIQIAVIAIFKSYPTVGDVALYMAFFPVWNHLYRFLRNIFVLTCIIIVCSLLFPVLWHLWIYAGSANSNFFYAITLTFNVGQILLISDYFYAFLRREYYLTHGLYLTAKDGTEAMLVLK
UniProt Q9C010: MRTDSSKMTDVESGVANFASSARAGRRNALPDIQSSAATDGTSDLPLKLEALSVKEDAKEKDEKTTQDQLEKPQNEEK
UniProt P08F94: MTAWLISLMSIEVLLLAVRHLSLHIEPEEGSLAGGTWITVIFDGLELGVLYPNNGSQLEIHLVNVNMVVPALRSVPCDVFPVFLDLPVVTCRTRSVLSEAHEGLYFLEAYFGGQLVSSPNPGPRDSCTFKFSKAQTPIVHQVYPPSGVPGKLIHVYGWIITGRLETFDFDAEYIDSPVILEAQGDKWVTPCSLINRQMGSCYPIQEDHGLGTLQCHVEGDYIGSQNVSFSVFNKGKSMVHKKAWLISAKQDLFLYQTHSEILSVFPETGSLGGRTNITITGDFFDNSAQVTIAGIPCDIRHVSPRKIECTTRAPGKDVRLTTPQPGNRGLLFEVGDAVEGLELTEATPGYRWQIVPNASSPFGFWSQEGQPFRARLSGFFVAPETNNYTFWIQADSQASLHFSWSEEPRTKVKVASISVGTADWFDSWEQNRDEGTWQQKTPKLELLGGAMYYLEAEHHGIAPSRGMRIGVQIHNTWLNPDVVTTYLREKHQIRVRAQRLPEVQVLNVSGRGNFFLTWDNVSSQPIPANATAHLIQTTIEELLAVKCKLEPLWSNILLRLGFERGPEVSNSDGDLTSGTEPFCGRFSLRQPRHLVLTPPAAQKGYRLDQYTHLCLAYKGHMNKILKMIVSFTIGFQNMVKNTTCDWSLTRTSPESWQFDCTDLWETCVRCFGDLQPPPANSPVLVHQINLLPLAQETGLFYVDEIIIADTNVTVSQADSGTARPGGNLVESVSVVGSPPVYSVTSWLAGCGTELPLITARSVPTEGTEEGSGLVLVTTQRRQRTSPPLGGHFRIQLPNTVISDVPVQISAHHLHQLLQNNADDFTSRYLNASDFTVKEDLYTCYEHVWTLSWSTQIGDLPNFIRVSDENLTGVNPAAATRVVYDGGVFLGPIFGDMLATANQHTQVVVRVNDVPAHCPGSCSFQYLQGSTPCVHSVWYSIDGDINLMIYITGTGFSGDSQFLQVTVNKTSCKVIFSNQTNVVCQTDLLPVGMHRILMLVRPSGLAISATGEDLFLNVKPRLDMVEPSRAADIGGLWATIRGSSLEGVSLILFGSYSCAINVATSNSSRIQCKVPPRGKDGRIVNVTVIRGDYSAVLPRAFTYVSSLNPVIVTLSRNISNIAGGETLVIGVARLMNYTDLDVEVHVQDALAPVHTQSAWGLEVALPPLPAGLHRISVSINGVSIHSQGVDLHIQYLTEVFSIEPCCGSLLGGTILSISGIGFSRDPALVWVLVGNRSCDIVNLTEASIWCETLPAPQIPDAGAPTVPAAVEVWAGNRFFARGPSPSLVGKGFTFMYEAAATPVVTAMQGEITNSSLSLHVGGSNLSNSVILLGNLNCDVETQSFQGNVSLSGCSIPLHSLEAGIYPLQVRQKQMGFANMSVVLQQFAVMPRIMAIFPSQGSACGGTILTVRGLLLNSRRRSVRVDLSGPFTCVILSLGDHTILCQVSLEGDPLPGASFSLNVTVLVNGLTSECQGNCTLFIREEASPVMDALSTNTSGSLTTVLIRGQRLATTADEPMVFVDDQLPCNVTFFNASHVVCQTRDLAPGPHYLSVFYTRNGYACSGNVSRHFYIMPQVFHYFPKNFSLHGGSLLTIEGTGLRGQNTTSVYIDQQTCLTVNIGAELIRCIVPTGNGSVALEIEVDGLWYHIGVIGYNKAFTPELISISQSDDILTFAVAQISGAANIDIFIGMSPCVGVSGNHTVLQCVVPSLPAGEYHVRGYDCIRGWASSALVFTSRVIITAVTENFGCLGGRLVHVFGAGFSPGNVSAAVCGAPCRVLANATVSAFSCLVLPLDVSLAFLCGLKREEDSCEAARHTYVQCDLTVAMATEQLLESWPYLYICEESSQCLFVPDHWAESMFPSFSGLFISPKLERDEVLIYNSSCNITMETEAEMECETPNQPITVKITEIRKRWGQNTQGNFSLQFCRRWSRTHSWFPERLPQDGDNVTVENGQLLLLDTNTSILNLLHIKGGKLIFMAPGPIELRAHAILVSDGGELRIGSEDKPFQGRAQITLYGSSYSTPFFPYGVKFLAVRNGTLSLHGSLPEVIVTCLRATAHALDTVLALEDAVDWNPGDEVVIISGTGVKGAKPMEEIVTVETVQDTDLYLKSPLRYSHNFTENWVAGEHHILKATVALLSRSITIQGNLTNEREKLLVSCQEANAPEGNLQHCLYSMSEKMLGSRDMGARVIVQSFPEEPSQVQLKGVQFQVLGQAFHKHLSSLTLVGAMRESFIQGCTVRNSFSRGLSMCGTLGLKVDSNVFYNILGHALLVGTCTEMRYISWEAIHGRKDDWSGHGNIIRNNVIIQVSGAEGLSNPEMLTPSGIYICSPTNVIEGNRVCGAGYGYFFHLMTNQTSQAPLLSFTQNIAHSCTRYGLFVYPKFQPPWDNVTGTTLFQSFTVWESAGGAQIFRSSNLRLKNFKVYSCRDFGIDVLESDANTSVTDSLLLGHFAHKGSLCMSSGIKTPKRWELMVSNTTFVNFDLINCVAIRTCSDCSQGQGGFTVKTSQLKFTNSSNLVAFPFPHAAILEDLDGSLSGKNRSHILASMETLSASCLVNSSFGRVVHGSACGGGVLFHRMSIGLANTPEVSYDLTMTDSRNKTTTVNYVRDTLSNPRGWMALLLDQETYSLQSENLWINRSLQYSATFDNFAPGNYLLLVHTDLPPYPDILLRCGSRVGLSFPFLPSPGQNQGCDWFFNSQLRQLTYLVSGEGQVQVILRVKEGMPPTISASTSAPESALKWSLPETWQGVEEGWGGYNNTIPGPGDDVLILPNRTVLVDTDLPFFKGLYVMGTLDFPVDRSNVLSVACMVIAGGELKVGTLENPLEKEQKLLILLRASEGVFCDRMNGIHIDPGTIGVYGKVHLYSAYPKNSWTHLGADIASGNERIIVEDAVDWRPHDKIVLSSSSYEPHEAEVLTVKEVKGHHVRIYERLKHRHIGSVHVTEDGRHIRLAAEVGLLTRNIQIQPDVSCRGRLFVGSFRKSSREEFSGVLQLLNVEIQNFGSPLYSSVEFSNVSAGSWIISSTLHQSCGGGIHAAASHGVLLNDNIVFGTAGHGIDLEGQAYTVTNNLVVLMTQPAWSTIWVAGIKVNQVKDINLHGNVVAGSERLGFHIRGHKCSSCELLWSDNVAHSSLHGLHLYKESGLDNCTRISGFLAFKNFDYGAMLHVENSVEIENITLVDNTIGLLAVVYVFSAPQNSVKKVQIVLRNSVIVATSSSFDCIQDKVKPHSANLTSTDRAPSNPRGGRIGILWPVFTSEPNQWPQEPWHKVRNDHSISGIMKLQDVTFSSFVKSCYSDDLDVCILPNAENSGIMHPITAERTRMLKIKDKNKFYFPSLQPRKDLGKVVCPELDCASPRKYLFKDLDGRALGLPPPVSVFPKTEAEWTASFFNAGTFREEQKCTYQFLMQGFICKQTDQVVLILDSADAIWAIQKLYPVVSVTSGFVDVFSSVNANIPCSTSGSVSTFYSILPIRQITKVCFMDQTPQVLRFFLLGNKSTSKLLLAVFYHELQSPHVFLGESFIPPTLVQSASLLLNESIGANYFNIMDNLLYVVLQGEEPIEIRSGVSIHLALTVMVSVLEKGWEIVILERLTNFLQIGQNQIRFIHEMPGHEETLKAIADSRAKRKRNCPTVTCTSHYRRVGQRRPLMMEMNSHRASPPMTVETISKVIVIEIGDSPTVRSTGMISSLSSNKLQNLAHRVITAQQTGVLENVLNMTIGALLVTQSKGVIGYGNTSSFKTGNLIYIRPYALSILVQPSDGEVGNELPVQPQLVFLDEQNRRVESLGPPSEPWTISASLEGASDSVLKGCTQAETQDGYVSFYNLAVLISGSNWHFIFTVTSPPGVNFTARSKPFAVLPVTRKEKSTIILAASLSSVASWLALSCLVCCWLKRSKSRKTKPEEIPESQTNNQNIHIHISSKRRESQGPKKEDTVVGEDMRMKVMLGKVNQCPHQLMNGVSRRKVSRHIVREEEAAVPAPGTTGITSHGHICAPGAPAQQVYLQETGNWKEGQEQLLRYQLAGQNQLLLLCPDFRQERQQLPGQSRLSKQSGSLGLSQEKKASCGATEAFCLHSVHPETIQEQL
PIGBOS1, A0A0B4J2F0, UniProt A0A0B4J2F0, whole entry, looked up: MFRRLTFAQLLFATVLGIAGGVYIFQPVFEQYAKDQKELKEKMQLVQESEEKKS
UniProt Q8WUB8: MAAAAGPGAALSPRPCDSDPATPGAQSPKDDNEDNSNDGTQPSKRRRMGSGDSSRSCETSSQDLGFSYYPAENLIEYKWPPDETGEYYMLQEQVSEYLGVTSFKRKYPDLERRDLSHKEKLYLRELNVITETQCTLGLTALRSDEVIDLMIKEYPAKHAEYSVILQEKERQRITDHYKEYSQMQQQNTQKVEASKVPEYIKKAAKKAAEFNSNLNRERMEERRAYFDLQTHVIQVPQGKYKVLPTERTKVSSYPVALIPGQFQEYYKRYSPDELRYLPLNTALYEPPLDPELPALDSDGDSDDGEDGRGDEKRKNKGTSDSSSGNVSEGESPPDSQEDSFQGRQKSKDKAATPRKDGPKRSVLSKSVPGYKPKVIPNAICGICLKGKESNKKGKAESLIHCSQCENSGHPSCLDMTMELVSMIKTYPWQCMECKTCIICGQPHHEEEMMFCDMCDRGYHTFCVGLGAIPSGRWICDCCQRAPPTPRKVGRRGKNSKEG
UniProt Q96G03: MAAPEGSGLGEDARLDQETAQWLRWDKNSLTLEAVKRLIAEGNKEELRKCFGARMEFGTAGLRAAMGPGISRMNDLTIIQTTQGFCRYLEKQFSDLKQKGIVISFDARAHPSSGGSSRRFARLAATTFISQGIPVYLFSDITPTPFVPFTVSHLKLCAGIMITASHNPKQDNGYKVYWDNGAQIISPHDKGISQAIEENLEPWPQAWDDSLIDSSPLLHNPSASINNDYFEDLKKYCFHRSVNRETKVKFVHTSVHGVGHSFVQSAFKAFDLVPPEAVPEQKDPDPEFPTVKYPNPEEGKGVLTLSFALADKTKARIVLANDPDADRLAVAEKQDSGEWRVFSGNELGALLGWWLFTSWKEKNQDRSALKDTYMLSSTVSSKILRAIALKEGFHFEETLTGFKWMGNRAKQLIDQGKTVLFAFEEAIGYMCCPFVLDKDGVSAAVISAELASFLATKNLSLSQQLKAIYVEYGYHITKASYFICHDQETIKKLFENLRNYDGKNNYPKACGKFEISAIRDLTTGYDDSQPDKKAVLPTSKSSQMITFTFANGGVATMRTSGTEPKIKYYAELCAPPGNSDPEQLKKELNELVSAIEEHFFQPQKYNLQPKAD

compound: c1cn2cc(-c3ccc4cn[nH]c4c3)nc(Nc3ccc(N4CCOCC4)cc3)c2n1 [entospletinib]; assay: log2 fold change, soluble protein after heating vs DMSO (PISA); higher = thermal stabilisation; K562 cells, 10 uM, 30 min; active = over 0.2 and 3.5 SD of the protein, either way, in both replicates (recomputed)
Procedure, shortened: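 K562 cells (2×10^6 cells/mL) were treated with 10 μM compound for 30 min, and aliquots were heated for 3 min over 48°C-58°C. Pooled aliquots were extracted in PBS with 0.5% NP-40 at 4°C, and the supernatant after 21,000xg for 90 min was measured by TMTpro 16plex LC-MS/MS with channel sums equalised. Reported thermal stability, relative to control samples and from duplicates, is a log2 fold change.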

log2 fold change, inactive:
PIGM (UniProt Q9H3S5) -0.167
PIGA (UniProt P37287) 0.026
PFN1 (UniProt I3L3D5) 0.25
PIGX isoform 2 (UniProt Q8TBF5) -0.09
PGRMC1 (UniProt O00264) 0.073
PHACTR4 isoform 2 (UniProt Q8IZ21) 0.02
PHC2 isoform 5 (UniProt Q8IXK0) -0.006
PGLS (UniProt O95336) 0.045
PFDN2 (UniProt Q9UHV9) 0.002
PHKB isoform 3 (UniProt Q93100) -0.04
PIGK (UniProt Q92643) 0
PIN1 (UniProt Q13526) -0.017
PLD1 (UniProt Q13393) -0.036
PIN4 isoform 2 (UniProt Q9Y237) -0.025
PHPT1 (UniProt Q9NRX4) 0.064
PGAM5 (UniProt Q96HS1) 0.093
PFKFB2 (UniProt O60825) -0.028
PHB2 (UniProt Q99623) -0.01
PICALM (UniProt H0YEY8) 0.003
PIGU (UniProt Q9H490) 0.019
PKIB isoform 2 (UniProt Q9C010) -0.073
PKHD1 (UniProt P08F94) 0.072
PIGBOS1, A0A0B4J2F0 0.105
PIMREG (UniProt Q9BSJ6) 0.107
PFN3 (UniProt P60673) -0.295
PEX6 (UniProt Q13608) 0.033
PHF10 (UniProt Q8WUB8) -0.045
PIP5K1A (UniProt Q99755) -0.004
PGM2 (UniProt Q96G03) -0.037

Retrieved one by one from the entries so far:
log2 fold change, inactive:
PHF10 (UniProt Q8WUB8) -0.045
PGAM5 (UniProt Q96HS1) 0.093

Next part:

log2 fold change, active:
PHKG2 (UniProt P15735) -0.279
